Assay results from PMC8070143.
These are yes or no findings as the source states them, for the method shown. Binding seen in cells or lysates may run through a third protein. Some entries that bind do so weakly or less than the wild type.

How the values were obtained:
[1] = target: voltage-dependent anion channel 1 (VDAC1) (human (endogenous in A2780)) (UniProt P21796); test: co-IP; A2780 cells transfected with wt-p62 or ΔUBA-p62, cisplatin 5 μg/mL 6 h; NP40 lysis buffer; immunoprecipitation with anti-VDAC1 and protein G agarose, blot anti-p62 and anti-VDAC1
[2] = target: T1, hexokinase 2 (HK2) (human (endogenous in A2780)) (UniProt P52789); test: co-IP; A2780 cells transfected with wt-p62 or ΔUBA-p62, cisplatin 5 μg/mL 12 h; NP40 lysis buffer; immunoprecipitation with anti-HK2 and protein G agarose, blot anti-p62 and anti-HK2
T1 sequence: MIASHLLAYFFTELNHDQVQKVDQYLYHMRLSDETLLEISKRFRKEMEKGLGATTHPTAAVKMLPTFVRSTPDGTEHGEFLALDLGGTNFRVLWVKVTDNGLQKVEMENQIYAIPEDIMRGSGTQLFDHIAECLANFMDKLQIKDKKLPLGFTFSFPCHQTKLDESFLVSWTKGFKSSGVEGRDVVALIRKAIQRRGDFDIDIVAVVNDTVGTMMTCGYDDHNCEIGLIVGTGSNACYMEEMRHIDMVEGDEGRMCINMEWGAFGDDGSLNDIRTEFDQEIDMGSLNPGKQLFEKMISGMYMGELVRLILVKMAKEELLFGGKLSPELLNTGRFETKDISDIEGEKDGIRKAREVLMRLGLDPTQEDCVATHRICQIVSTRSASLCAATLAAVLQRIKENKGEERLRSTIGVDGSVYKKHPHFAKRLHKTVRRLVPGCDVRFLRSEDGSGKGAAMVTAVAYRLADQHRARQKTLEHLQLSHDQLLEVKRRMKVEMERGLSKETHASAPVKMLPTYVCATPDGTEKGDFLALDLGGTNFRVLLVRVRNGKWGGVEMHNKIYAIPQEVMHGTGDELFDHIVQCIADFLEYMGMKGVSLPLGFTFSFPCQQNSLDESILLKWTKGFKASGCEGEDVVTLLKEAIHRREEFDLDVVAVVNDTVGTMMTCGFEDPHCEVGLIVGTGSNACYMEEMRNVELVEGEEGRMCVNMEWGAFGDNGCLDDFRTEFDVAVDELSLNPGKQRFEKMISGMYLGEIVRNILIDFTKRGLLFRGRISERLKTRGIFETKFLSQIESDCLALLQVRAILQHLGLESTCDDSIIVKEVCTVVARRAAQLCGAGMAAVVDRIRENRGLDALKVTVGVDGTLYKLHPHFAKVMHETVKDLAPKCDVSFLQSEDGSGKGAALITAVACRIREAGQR

wild-type p62 (pcDNA3.1-p62) (from UniProt Q13501 1-440)
binding [1]: binds | binding [2]: binds
